This note sets out measurements from ChEMBL document CHEMBL1139598, “A discriminant model constructed by the support vector machine method for HERG potassium channel inhibitors” (Bioorg Med Chem Lett, 2005).

Chains of the proteins cited; added tags and fusions are not shown. Lines headed by an entry give the natural chain unless they say otherwise; changes in a name come on top.
UniProt Q12809: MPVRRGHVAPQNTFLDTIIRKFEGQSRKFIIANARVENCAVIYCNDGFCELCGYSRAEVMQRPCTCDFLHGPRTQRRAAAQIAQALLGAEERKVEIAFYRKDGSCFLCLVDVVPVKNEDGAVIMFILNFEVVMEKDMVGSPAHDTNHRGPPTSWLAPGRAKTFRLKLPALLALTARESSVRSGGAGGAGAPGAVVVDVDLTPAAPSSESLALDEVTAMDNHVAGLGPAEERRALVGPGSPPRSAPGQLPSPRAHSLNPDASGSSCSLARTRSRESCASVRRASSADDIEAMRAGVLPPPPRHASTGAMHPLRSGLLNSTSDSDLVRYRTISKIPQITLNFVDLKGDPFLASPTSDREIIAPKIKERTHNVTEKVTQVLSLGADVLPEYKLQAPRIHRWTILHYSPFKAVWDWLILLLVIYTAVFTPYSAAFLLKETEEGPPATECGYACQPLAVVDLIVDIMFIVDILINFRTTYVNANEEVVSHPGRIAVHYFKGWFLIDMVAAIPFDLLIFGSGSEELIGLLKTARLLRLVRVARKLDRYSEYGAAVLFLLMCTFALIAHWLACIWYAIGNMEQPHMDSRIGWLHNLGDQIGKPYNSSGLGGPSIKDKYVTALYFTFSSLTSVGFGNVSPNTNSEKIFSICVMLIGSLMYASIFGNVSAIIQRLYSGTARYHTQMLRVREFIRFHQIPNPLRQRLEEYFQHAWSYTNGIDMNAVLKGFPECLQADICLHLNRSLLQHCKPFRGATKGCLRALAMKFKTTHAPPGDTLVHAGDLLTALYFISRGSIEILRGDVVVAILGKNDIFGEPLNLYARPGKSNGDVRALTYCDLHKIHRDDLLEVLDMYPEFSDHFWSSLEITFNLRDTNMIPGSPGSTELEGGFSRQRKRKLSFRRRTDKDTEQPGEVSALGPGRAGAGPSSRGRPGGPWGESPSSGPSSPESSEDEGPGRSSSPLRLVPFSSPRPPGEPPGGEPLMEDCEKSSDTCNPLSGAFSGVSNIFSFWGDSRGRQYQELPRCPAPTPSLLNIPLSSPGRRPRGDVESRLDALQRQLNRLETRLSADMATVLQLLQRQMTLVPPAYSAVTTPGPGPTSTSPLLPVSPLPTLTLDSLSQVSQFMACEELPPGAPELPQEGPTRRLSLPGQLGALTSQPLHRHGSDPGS

The target in the test is Voltage-gated inwardly rectifying potassium channel KCNH2 (Homo sapiens, UniProt Q12809). Put plainly: Inhibitory concentration against potassium channel HERG.

pIC50: −log10 of the molar value.

For `CO[C@]12CC[C@@]3(C[C@@H]1[C@](C)(O)C(C)(C)C)[C@H]1Cc4ccc(O)c5c4[C@@]3(CCN1CC1CC1)[C@H]2O5` [BUPRENORPHINE], the negative-log IC50 (pIC50) is 5.12.

As to `CCOC(=O)C1(c2ccccc2)CCN(C)CC1` [MEPERIDINE], the negative logarithm of the IC50 (pIC50) is 6.49.
